Data on 42 sequences can be found in paper PMC7819943, “Rice protein-binding microarrays: a tool to detect cis-acting elements near promoter regions in rice”.

The chains behind the UniProt entries cited, without tags or fusion partners.
UniProt Q0JBA9, entry or part of it: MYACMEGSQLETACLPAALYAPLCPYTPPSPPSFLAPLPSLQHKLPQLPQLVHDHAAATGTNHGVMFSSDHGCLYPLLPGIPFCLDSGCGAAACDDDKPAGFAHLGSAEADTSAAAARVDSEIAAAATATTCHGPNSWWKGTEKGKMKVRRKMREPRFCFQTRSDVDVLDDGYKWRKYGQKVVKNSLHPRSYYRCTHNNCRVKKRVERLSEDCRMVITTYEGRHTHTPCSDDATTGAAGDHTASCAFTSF

The list shows a part of the results.

The experiment concerns the target OsWRKY34 (Oryza sativa, UniProt Q0JBA9 1-250). The experiment is described as follows: protein-binding microarray (RPBM); PBS, 2% BSA, 51.3 ng/ul salmon testes DNA, 50 uM zinc acetate, 200 nM TF, 25 C, 1 h; high values mean tight binding. Conditions: protein: recombinant; tags: N-terminal polyhistidine and DsRed monomer fusion (pET32a); label: CyDye5-dUTP incorporated in the synthesized complementary strand; 3' TTTTT single-stranded linker to array surface; dsDNA, one strand shown. The gist of the method: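 Binding signal here means per-feature fluorescence intensity in arbitrary units. The values were read on an Axon 4000B scanner after a custom Agilent array, double-stranded by primer extension with Cy5-dUTP, was incubated with 200 nM protein at 25 °C for 1 h in PBS with 2% BSA, salmon testes DNA and 50 µM zinc acetate, then washed. The proteins were transcription factors with an N-terminal polyhistidine tag and DsRed, expressed in E. coli BL21-CodonPlus and purified on Ni–NTA.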
With “AATTCTCAAACCACAACACACACACACAAACAGTTGGTCCCGGAGTCACCTAGTGCAG”, the binding signal is 8400 fluorescence intensity (a.u.). Consider “AAACTGCCAAAACCGCCACGTCCGTAGCACGCTAAAACCTCGGAGTCACCTAGTGCAG”, for which the binding signal was 9680 fluorescence intensity (a.u.). Under “TAATGTGGTCGCTTGTTTGTTGTGTCTGAACATTTTCTTCCGGAGTCACCTAGTGCAG” stands 13100 fluorescence intensity (a.u.); under “TCTCTTATTTTCTTCCCCTGTTATGTCTGAAACTCTGAATCGGAGTCACCTAGTGCAG”, 8720 fluorescence intensity (a.u.). In the case of “CGGAGTCGGAGCTCTAGCTTGGTTCATCGGTTGCATACTTCGGAGTCACCTAGTGCAG”, the binding signal was 8120 fluorescence intensity (a.u.).

Take “GTGGTTTGCAGCAGGTGAGCAGGATGGGTGTGGATGATTGCGGAGTCACCTAGTGCAG”: the binding signal is 10300 fluorescence intensity (a.u.). Turning to “CCGAATCCATTTCCAATAATCCATTTCGCCACGATTTGTTCGGAGTCACCTAGTGCAG”, the binding signal was 8180 fluorescence intensity (a.u.). With “TACGCTAGTCACTAGTACGGGGCGGCAGGGGATAAATGAACGGAGTCACCTAGTGCAG” the figure was 10300 fluorescence intensity (a.u.); with “ACTCCGGCGGGTTAGGGTTTGGGGTTGGGGTGAGGGTAGGCGGAGTCACCTAGTGCAG”, 10900 fluorescence intensity (a.u.); with “ATTCCTGGAGTGGATAGTCGCTTATTTCTTGCATGTCATCCGGAGTCACCTAGTGCAG”, 9550 fluorescence intensity (a.u.). Regarding “AGTGCTTATTTAATTCGCTAGGTAGTTCCCTGGCCTTGACCGGAGTCACCTAGTGCAG”, the binding signal was 8610 fluorescence intensity (a.u.). Under “CCTCGAATTCGTTTTATTTTTTGTTCCACCAAAAATGTTTCGGAGTCACCTAGTGCAG” stands 8680 fluorescence intensity (a.u.); under “ACGTGTCCTTGTTTCCCATTAATACGTTTTTTAAACCACTCGGAGTCACCTAGTGCAG”, 12100 fluorescence intensity (a.u.); under “TTTGCGTCGCCTTTCATTTTGGATGTTTCAATTTGAATACCGGAGTCACCTAGTGCAG”, 10400 fluorescence intensity (a.u.). Take “GGGGCTAGGGTTTGGGTGGGATCTCAGCCGTCGGATCTGACGGAGTCACCTAGTGCAG”: the binding signal was 17000 fluorescence intensity (a.u.). For the sequence “ACCATCCATTCGATCGGTTTAGATCCGGCGCGCGCCGGACCGGAGTCACCTAGTGCAG”, the binding signal is 9240 fluorescence intensity (a.u.). Under “TTATGTTTTTCACATGTTCTCGCATTGCAATCCATACTTACGGAGTCACCTAGTGCAG” stands 10400 fluorescence intensity (a.u.); under “AATACTATCACATCCGCATTCACATACCTCTACCATACAACGGAGTCACCTAGTGCAG”, 8930 fluorescence intensity (a.u.). On to “CAAATTCCTTCAGTTCCATGCCTACAGAGTTGCCGTCTGCCGGAGTCACCTAGTGCAG”, for which the binding signal was 8790 fluorescence intensity (a.u.). With “TCTTTTGTCCATCTATTTCAAACTTCTACTCGACCTTAAACGGAGTCACCTAGTGCAG” the figure was 9080 fluorescence intensity (a.u.). With “GCCCTCGCGCCACGTGGAGGTCACCTCCCATTTCCTCGTCCGGAGTCACCTAGTGCAG” the figure was 8450 fluorescence intensity (a.u.). Regarding “TCAATCTTTCAATGTTTCTTCACTTGGTCACTGCCCTCATCGGAGTCACCTAGTGCAG”, the binding signal is 9060 fluorescence intensity (a.u.).

As to “TCGTCTCCGGCCTTTTCTTGCTCTCCTCGTCTTCTTCCTCCGGAGTCACCTAGTGCAG”, the binding signal was 13200 fluorescence intensity (a.u.). As for “ACCATTTAACTCACCATGTTTATGTTGAATTGCTAGCTATCGGAGTCACCTAGTGCAG”, the binding signal is 10200 fluorescence intensity (a.u.). Regarding “TTTTGCCAATGACCAACGATTGATCCTAAGAATTGCCATACGGAGTCACCTAGTGCAG”, the binding signal is 8370 fluorescence intensity (a.u.). Consider “TCCTGTTATTACTCCCCTAAGCTGGCGCCAGCTCAAGCACCGGAGTCACCTAGTGCAG”, for which the binding signal was 8150 fluorescence intensity (a.u.). For the sequence “AGATCTATACATGTAATAGGTGAGTTCCTTCCTGTTTTCTCGGAGTCACCTAGTGCAG”, the binding signal is 8580 fluorescence intensity (a.u.). Consider “AAGCCCAAAGACCCAATCTTTCCTTAGAAATTTAATTTTTCGGAGTCACCTAGTGCAG”, for which the binding signal was 8040 fluorescence intensity (a.u.). “CGGCTCGCCGACTTCGCTCGCCTTCCTGCCGTCGCCTCCGCGGAGTCACCTAGTGCAG”: the binding signal was 8280 fluorescence intensity (a.u.). With “CCCTCTCTCTCTCTCTCTCTCTCTCTCTCTCTCTCTCTCTCGGAGTCACCTAGTGCAG” the figure was 10800 fluorescence intensity (a.u.).

Take “CTGACATGTGAGTCCCATTACCCTCGTGCCTATATGTAAGCGGAGTCACCTAGTGCAG”: the binding signal was 8060 fluorescence intensity (a.u.). For the sequence “CCACTTTCCCATGAGTGCTTTGTTCATGACTTTCTGGTCTCGGAGTCACCTAGTGCAG”, the binding signal is 9390 fluorescence intensity (a.u.). Regarding “GCCTCCGTCCGTCCGTCCGTCTCTCTCTCTCTCTCTTCTTCGGAGTCACCTAGTGCAG”, the binding signal was 8860 fluorescence intensity (a.u.). Take “TCCCGAGCCCATTGCAACCCCAATGCTTATAGGCCTTATGCGGAGTCACCTAGTGCAG”: the binding signal was 9110 fluorescence intensity (a.u.). Consider “ATCGATTGTGTAGTTCTTTGATCGCATCTGGGAGTTATCACGGAGTCACCTAGTGCAG”, for which the binding signal was 8320 fluorescence intensity (a.u.). Under “TCATTGTTAAGCCGTTGTTATGTACTCCCTCCATTTTTTACGGAGTCACCTAGTGCAG” stands 12500 fluorescence intensity (a.u.); under “GATATATCCGGGTGGTTTTTTCGCACTTATGTTTGTTTATCGGAGTCACCTAGTGCAG”, 9050 fluorescence intensity (a.u.). Under “AAGCTTGGACGACGCTTTCAATGTACTTGTCCGGCAAACACGGAGTCACCTAGTGCAG” stands 9250 fluorescence intensity (a.u.); under “CGCCGCGTAAGCTTTCCTTCCCGTTCACTCCCAGGCTCTCCGGAGTCACCTAGTGCAG”, 9060 fluorescence intensity (a.u.). Turning to “CGTGTTGTTATGGGGTAGTATATCATCAGATGTTGGAACCCGGAGTCACCTAGTGCAG”, the binding signal is 8770 fluorescence intensity (a.u.). With “GGGTAGGAGGAGGTAATTGAGAGGTAATTCCTCCTTTAATCGGAGTCACCTAGTGCAG” the figure was 9220 fluorescence intensity (a.u.); with “GTACGTTCGCGCGCATGCTACATGCATGCATGCACATCGACGGAGTCACCTAGTGCAG”, 9380 fluorescence intensity (a.u.).
